Results are given in words; binding and its absence hold for the method and conditions named. For some assays here: Binding seen in cells or lysates may run through a third protein. Some binding calls cover weakened binding; strength is not graded here. Where a sequence is shown, tags or fusion partners need not be part of it. One block for each binder: values may come before it.
Legend:
[1] = biological target: RAIN mutant K174A/R176A/A180T (from pCMV3×FLAG-hRAIN, stably expressed in RAW cells) (human) (UniProt Q96GX9); assay: gel filtration chromatography
[2] = biological target: T1, endogenous RANK of RAW264.7 cells (mouse, UniProt O35305 31-625); assay: interaction with endogenous RANK in RAW cells (data not shown)
T1 construct: whole, on cells; Immunoprecipitated from cell lysates with anti-RANK; The species follows from the mouse cell line
T1 sequence (looked up): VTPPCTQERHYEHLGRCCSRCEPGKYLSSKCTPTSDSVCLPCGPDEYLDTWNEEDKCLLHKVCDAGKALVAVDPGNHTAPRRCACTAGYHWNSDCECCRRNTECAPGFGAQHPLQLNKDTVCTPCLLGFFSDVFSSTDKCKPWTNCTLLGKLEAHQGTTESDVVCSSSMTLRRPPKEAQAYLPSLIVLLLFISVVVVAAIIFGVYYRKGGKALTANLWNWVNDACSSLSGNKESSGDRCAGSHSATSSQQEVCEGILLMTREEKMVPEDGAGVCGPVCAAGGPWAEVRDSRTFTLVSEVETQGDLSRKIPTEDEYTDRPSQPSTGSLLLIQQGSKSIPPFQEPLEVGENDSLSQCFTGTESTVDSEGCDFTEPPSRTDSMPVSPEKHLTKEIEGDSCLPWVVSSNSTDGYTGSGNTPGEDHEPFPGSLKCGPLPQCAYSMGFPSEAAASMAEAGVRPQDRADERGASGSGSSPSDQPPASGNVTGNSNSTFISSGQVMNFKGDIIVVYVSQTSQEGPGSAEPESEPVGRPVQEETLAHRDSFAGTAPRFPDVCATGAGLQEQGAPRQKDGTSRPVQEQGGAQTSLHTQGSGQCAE

[3] = biological target: T1, endogenous RANK of RAW264.7 cells; assay: co-immunoprecipitation with anti-RANK, western blot with anti-FLAG
[4] = biological target: T1, endogenous RANK of RAW264.7 cells; assay: co-immunoprecipitation with anti-RANK, western blot with anti-FLAG, FIG. 2A
[5] = biological target: RAIN (human RAIN, full length, untagged; pcDNA3-RAIN) (human) (UniProt Q96GX9); assay: yeast two-hybrid analysis and gel filtration chromatography

binding [1]: binds | binding [2]: binds
B1: RAIN mutant K174A/R176A/A180T (from pCMV3×FLAG-hRAIN, stably expressed in RAW cells) (protein, human, UniProt Q96GX9 1-242, looked up, not shown: small tags and cut ends)
chain: MSGCDAREGDCCSRRCGAQDKEHPRYLIPELCKQFYHLGWVTGTGGGISLKHGDEIYIAPSGVQKERIQPEDMFVCDINEKDISGPSPSKKLKKSQCTPLFMNAYTMRGAGAVIHTHSKAAVMATLLFPGREFKITHQEMIKGIKKCTSGGYYRYDDMLVVPIIENTPEEKDLADAMAHTMNEYPDSCAVLVRRHGVYVWGETWEKAKTMCECYDYLFDIAVSMKKVGLDPSQLPVGENGIV

binding [3]: binds | binding [4]: binds
B2: FLAG-tagged RAIN (human RAIN with a 3×FLAG tag at the C-terminus, from pCMV3×FLAG-hRAIN, stably expressed in RAW cells) (protein, UniProt Q96GX9 1-242, looked up, not shown: small tags and cut ends)
chain: MSGCDAREGDCCSRRCGAQDKEHPRYLIPELCKQFYHLGWVTGTGGGISLKHGDEIYIAPSGVQKERIQPEDMFVCDINEKDISGPSPSKKLKKSQCTPLFMNAYTMRGAGAVIHTHSKAAVMATLLFPGREFKITHQEMIKGIKKCTSGGYYRYDDMLVVPIIENTPEEKDLKDRMAHAMNEYPDSCAVLVRRHGVYVWGETWEKAKTMCECYDYLFDIAVSMKKVGLDPSQLPVGENGIV

binding [5]: binds
B3: RAIN (human RAIN, full length, untagged; pcDNA3-RAIN) (protein, UniProt Q96GX9 1-242, looked up)
chain: MSGCDAREGDCCSRRCGAQDKEHPRYLIPELCKQFYHLGWVTGTGGGISLKHGDEIYIAPSGVQKERIQPEDMFVCDINEKDISGPSPSKKLKKSQCTPLFMNAYTMRGAGAVIHTHSKAAVMATLLFPGREFKITHQEMIKGIKKCTSGGYYRYDDMLVVPIIENTPEEKDLKDRMAHAMNEYPDSCAVLVRRHGVYVWGETWEKAKTMCECYDYLFDIAVSMKKVGLDPSQLPVGENGIV
